Record: PubChem BioAssay AID504764 (Drosophila RNAi Screening Center, 2011)
The deposit covers about 22,000 reagents; shown is an unselected part of those with a known target gene and a result. In the full data, 403 (1.9%) got an active call. 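Unnormalised raw counts per well; ratio z-scores behind the hit calls and whether each hit raises or lowers signal are not deposited.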 A number with no mark means an inactive call. The numbers tell different reagents against one gene apart. No sequences are given here. The record does not give: the amount of reagent.

- Aim: 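Genes whose knock-down alters Notch-dependent transcription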 (primary screen)
- System: Drosophila Kc167 cells
- Reagent: long dsRNA against Drosophila genes
- Time to read-out: about 5 days (4 days dsRNA, then 24 h after transfection)
- Challenge: transfection of constitutively active membrane-tethered Notch lacking the extracellular domain, read 24 h later
- Detection: 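Light from a Notch-responsive E(spl)m3 luciferase reporter under active Notch, with control-promoter and no-Notch reporter wells to normalise; raw counts from paired wells a and b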
- Reading the numbers: induced reporter light, run 1, well a and induced reporter light, run 1, well b: higher = more light from the Notch target reporter with active Notch; control promoter light, run 1, well a and control promoter light, run 1, well b: higher = more light from the viral control promoter (cell number, transfection, viability); uninduced reporter light, run 1, well a: higher = more light from the Notch target reporter without active Notch
- Call rule: 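Hit if the duplicate-averaged log2 ratio of induced to control-promoter light gives a plate-wise z beyond ±2, or induced to uninduced beyond ±1.8; weak-control or discordant-duplicate wells dropped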
- Meaning of the calls: active = modifier hit (raised or lowered Notch signal); inactive = not a hit

CG3009: induced reporter light, run 1, well a = 2.27e5; induced reporter light, run 1, well b = 2.39e5; control promoter light, run 1, well a = 3.18e5; control promoter light, run 1, well b = 2.91e5; uninduced reporter light, run 1, well a = 15192
cype (cyclope): induced reporter light, run 1, well a = 1.66e5; induced reporter light, run 1, well b = 1.58e5; control promoter light, run 1, well a = 1.84e5; control promoter light, run 1, well b = 1.48e5; uninduced reporter light, run 1, well a = 10200
CR31824 (pseudo): induced reporter light, run 1, well a = 77330; induced reporter light, run 1, well b = 77730; control promoter light, run 1, well a = 75105; control promoter light, run 1, well b = 70225; uninduced reporter light, run 1, well a = 5665
Gnpat (Glyceronephosphate O-acyltransferase): induced reporter light, run 1, well a = 2.15e5; induced reporter light, run 1, well b = 1.91e5; control promoter light, run 1, well a = 2.24e5; control promoter light, run 1, well b = 2.17e5; uninduced reporter light, run 1, well a = 14795
CheB98a (Chemosensory protein A 98a): induced reporter light, run 1, well a = 1.32e5; induced reporter light, run 1, well b = 1.42e5; control promoter light, run 1, well a = 1.78e5; control promoter light, run 1, well b = 1.70e5; uninduced reporter light, run 1, well a = 11195
CG14220: induced reporter light, run 1, well a = 2.18e5 (active); induced reporter light, run 1, well b = 2.25e5; control promoter light, run 1, well a = 1.59e5; control promoter light, run 1, well b = 1.59e5; uninduced reporter light, run 1, well a = 8982
CG13693: induced reporter light, run 1, well a = 2.32e5; induced reporter light, run 1, well b = 1.36e5; control promoter light, run 1, well a = 1.37e5; control promoter light, run 1, well b = 1.09e5; uninduced reporter light, run 1, well a = 12045
Ppm1: induced reporter light, run 1, well a = 1.41e5; induced reporter light, run 1, well b = 1.18e5; control promoter light, run 1, well a = 2.66e5; control promoter light, run 1, well b = 1.51e5; uninduced reporter light, run 1, well a = 8850
CG14689: induced reporter light, run 1, well a = 79610; induced reporter light, run 1, well b = 80745; control promoter light, run 1, well a = 84495; control promoter light, run 1, well b = 65050; uninduced reporter light, run 1, well a = 6005
CG16888: induced reporter light, run 1, well a = 1.75e5; induced reporter light, run 1, well b = 1.62e5; control promoter light, run 1, well a = 1.87e5; control promoter light, run 1, well b = 2.13e5; uninduced reporter light, run 1, well a = 15070
CG43163 #1: induced reporter light, run 1, well a = 1.76e5; induced reporter light, run 1, well b = 1.44e5; control promoter light, run 1, well a = 2.03e5; control promoter light, run 1, well b = 1.51e5; uninduced reporter light, run 1, well a = 5540
CG43163 #2: induced reporter light, run 1, well a = 1.46e5; induced reporter light, run 1, well b = 1.43e5; control promoter light, run 1, well a = 1.34e5; control promoter light, run 1, well b = 1.37e5; uninduced reporter light, run 1, well a = 6640
Prp16 (pre-mRNA processing factor 16) #1: induced reporter light, run 1, well a = 33190; induced reporter light, run 1, well b = 55900; control promoter light, run 1, well a = 37115; control promoter light, run 1, well b = 27770; uninduced reporter light, run 1, well a = 2255
Prp16 (pre-mRNA processing factor 16) #2: induced reporter light, run 1, well a = 55960; induced reporter light, run 1, well b = 50100; control promoter light, run 1, well a = 49160; control promoter light, run 1, well b = 57345; uninduced reporter light, run 1, well a = 8400
CG34175: induced reporter light, run 1, well a = 2.57e5; induced reporter light, run 1, well b = 2.41e5; control promoter light, run 1, well a = 2.19e5; control promoter light, run 1, well b = 2.36e5; uninduced reporter light, run 1, well a = 15240
Zn72D (Zinc-finger protein at 72D): induced reporter light, run 1, well a = 83900; induced reporter light, run 1, well b = 78335; control promoter light, run 1, well a = 62275; control promoter light, run 1, well b = 51380; uninduced reporter light, run 1, well a = 7720
PGRP-LC (Peptidoglycan recognition protein LC) #1: induced reporter light, run 1, well a = 1.75e5; induced reporter light, run 1, well b = 1.49e5; control promoter light, run 1, well a = 2.09e5; control promoter light, run 1, well b = 1.98e5; uninduced reporter light, run 1, well a = 13335
PGRP-LC (Peptidoglycan recognition protein LC) #2: induced reporter light, run 1, well a = 2.37e5; induced reporter light, run 1, well b = 1.97e5; control promoter light, run 1, well a = 3.54e5; control promoter light, run 1, well b = 2.42e5; uninduced reporter light, run 1, well a = 9195
PGRP-LC (Peptidoglycan recognition protein LC) #3: induced reporter light, run 1, well a = 2.34e5; induced reporter light, run 1, well b = 1.94e5; control promoter light, run 1, well a = 3.02e5; control promoter light, run 1, well b = 2.81e5; uninduced reporter light, run 1, well a = 10388

Entries listed so far whose target name starts with P or p (6):
Ppm1: induced reporter light, run 1, well a = 1.41e5; induced reporter light, run 1, well b = 1.18e5; control promoter light, run 1, well a = 2.66e5; control promoter light, run 1, well b = 1.51e5; uninduced reporter light, run 1, well a = 8850
Prp16 (pre-mRNA processing factor 16) #1: induced reporter light, run 1, well a = 33190; induced reporter light, run 1, well b = 55900; control promoter light, run 1, well a = 37115; control promoter light, run 1, well b = 27770; uninduced reporter light, run 1, well a = 2255
Prp16 (pre-mRNA processing factor 16) #2: induced reporter light, run 1, well a = 55960; induced reporter light, run 1, well b = 50100; control promoter light, run 1, well a = 49160; control promoter light, run 1, well b = 57345; uninduced reporter light, run 1, well a = 8400
PGRP-LC (Peptidoglycan recognition protein LC) #1: induced reporter light, run 1, well a = 1.75e5; induced reporter light, run 1, well b = 1.49e5; control promoter light, run 1, well a = 2.09e5; control promoter light, run 1, well b = 1.98e5; uninduced reporter light, run 1, well a = 13335
PGRP-LC (Peptidoglycan recognition protein LC) #2: induced reporter light, run 1, well a = 2.37e5; induced reporter light, run 1, well b = 1.97e5; control promoter light, run 1, well a = 3.54e5; control promoter light, run 1, well b = 2.42e5; uninduced reporter light, run 1, well a = 9195
PGRP-LC (Peptidoglycan recognition protein LC) #3: induced reporter light, run 1, well a = 2.34e5; induced reporter light, run 1, well b = 1.94e5; control promoter light, run 1, well a = 3.02e5; control promoter light, run 1, well b = 2.81e5; uninduced reporter light, run 1, well a = 10388
